Experimental data published in publication PMC8964741.
No constants are given. Whether binding was seen depends on the method and setting. Binding seen in cells or lysates may run through a third protein. These calls come from enrichment with a bait or labelling near it, and not all partners need be listed. Tags and fused reporters may be left off the sequences shown.

The chains behind the UniProt entries cited, without tags or fusion partners.
UniProt Q02880: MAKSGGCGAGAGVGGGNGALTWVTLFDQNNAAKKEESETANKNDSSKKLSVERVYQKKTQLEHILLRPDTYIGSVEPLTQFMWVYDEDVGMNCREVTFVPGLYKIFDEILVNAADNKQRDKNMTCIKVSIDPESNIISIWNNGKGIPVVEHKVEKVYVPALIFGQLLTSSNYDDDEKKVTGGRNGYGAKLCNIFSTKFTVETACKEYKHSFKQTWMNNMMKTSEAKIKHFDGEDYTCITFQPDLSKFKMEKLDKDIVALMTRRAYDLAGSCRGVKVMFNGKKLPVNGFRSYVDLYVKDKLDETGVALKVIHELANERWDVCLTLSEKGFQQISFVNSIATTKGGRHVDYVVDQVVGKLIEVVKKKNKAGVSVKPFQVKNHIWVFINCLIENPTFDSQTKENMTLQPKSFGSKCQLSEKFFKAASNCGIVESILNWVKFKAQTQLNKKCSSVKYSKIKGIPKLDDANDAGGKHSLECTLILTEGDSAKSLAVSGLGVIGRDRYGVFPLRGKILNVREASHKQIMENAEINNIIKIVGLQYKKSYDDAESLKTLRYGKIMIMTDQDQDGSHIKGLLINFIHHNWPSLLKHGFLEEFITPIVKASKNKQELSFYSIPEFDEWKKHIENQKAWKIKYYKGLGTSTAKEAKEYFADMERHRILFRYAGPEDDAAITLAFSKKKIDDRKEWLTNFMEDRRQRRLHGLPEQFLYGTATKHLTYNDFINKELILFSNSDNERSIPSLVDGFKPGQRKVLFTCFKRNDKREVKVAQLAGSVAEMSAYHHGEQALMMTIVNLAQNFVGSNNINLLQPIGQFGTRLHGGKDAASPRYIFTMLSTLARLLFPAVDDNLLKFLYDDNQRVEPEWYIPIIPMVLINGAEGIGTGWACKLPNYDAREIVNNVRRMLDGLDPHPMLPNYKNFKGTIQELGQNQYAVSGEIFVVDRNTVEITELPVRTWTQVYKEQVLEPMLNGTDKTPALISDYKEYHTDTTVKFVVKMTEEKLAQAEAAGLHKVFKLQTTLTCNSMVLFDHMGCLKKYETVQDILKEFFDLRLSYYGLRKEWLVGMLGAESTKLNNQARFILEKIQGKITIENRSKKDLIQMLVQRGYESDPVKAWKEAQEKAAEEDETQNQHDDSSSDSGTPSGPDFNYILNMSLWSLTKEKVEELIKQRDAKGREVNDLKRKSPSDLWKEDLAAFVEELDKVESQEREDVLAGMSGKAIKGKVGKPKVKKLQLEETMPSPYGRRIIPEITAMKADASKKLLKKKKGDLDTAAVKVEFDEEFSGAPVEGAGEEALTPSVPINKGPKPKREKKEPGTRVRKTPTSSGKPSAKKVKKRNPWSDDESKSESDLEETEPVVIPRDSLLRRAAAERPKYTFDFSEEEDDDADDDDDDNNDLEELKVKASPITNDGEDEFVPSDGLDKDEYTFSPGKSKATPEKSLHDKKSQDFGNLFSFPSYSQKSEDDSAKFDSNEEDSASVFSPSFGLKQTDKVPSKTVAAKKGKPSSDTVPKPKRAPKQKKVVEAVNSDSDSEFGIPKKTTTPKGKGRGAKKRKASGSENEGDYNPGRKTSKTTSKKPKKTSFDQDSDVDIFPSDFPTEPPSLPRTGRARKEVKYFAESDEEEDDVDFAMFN

Target: T1, SBP-Flag-ACOX2 (acyl-CoA oxidase 2) (UniProt Q99424)
T1 sequence: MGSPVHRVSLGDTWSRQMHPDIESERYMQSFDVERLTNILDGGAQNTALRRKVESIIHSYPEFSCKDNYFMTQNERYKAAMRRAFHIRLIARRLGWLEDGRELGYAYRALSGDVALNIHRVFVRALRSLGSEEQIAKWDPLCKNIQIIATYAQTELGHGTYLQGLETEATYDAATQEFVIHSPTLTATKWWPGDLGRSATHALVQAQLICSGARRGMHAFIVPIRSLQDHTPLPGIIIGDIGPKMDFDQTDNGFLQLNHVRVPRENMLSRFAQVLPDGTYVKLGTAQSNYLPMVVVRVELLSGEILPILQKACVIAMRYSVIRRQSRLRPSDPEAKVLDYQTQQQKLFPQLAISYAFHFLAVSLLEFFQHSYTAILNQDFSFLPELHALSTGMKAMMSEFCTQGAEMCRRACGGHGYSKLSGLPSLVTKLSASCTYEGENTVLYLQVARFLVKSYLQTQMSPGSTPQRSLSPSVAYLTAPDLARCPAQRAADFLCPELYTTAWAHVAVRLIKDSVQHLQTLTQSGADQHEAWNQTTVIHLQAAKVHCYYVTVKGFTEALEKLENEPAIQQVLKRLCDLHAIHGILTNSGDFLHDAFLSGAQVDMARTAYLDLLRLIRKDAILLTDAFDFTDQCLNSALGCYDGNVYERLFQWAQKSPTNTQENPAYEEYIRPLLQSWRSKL
Experiment: affinity purification with mass spectrometry; TAP-MS: MHCC97H and HEK-293T cells (each analysed) transfected with pMCB-SBP-Flag-ACOX2; lysed in 0.1% NP40 buffer (20 mM Tris-HCl pH 8.0, 150 mM NaCl); lysate on streptavidin-conjugated beads 3 h at 4 °C; washed, tryptic digestion on beads, mass spectrometry

“acetyl-CoA carboxylase 2 (ACACB) (enzyme)” was tested, and the binding was “binds”.

With “DNA topoisomerase TOP2B (from UniProt Q02880 1-1626) (enzyme)” the binding was “binds”.

B1: SBP-Flag-ACOX2 (acyl-CoA oxidase 2) (enzyme, UniProt Q99424 1-681)
chain: T1 sequence
With B1 the binding was “binds”.

B2: methylcrotonoyl-CoA carboxylase subunit alpha (MCCA) (enzyme, UniProt Q96RQ3 42-725)
chain: TTATGRNITKVLIANRGEIACRVMRTAKKLGVQTVAVYSEADRNSMHVDMADEAYSIGPAPSQQSYLSMEKIIQVAKTSAAQAIHPGCGFLSENMEFAELCKQEGIIFIGPPPSAIRDMGIKSTSKSIMAAAGVPVVEGYHGEDQSDQCLKEHARRIGYPVMIKAVRGGGGKGMRIVRSEQEFQEQLESARREAKKSFNDDAMLIEKFVDTPRHVEVQVFGDHHGNAVYLFERDCSVQRRHQKIIEEAPAPGIKSEVRKKLGEAAVRAAKAVNYVGAGTVEFIMDSKHNFCFMEMNTRLQVEHPVTEMITGTDLVEWQLRIAAGEKIPLSQEEITLQGHAFEARIYAEDPSNNFMPVAGPLVHLSTPRADPSTRIETGVRQGDEVSVHYDPMIAKLVVWAADRQAALTKLRYSLRQYNIVGLHTNIDFLLNLSGHPEFEAGNVHTDFIPQHHKQLLLSRKAAAKESLCQAALGLILKEKAMTDTFTLQAHDQFSPFSSSSGRRLNISYTRNMTLKDGKNNVAIAVTYNHDGSYSMQIEDKTFQVLGNLYSEGDCTYLKCSVNGVASKAKLIILENTIYLFSKEGSIEIDIPVPKYLSSVSSQETQGGPLAPMTGTIEKVFVKAGDKVKAGDSLMVMIAMKMEHTIKSPKDGTVKKVFYREGAQANRHTPLVEFEEEESDKRESE
For B2, the binding was “binds”.

B3: methylcrotonoyl-CoA carboxylase beta chain (MCCB), endogenous (enzyme, UniProt Q9HCC0 23-563)
chain: YHGDSVASLGTQPDLGSALYQENYKQMKALVNQLHERVEHIKLGGGEKARALHISRGKLLPRERIDNLIDPGSPFLELSQFAGYQLYDNEEVPGGGIITGIGRVSGVECMIIANDATVKGGAYYPVTVKKQLRAQEIAMQNRLPCIYLVDSGGAYLPRQADVFPDRDHFGRTFYNQAIMSSKNIAQIAVVMGSCTAGGAYVPAMADENIIVRKQGTIFLAGPPLVKAATGEEVSAEDLGGADLHCRKSGVSDHWALDDHHALHLTRKVVRNLNYQKKLDVTIEPSEEPLFPADELYGIVGANLKRSFDVREVIARIVDGSRFTEFKAFYGDTLVTGFARIFGYPVGIVGNNGVLFSESAKKGTHFVQLCCQRNIPLLFLQNITGFMVGREYEAEGIAKDGAKMVAAVACAQVPKITLIIGGSYGAGNYGMCGRAYSPRFLYIWPNARISVMGGEQAANVLATITKDQRAREGKQFSSADEAALKEPIIKKFEEEGNPYYSSARVWDDGIIDPADTRLVLGLSFSAALNAPIEKTDFGIFRM
In the case of B3, the binding is reported as “binds”.

B4: propionyl-CoA carboxylase subunit alpha (PCCA) (enzyme, UniProt P05165 53-728)
chain: SVGYDPNEKTFDKILVANRGEIACRVIRTCKKMGIKTVAIHSDVDASSVHVKMADEAVCVGPAPTSKSYLNMDAIMEAIKKTRAQAVHPGYGFLSENKEFARCLAAEDVVFIGPDTHAIQAMGDKIESKLLAKKAEVNTIPGFDGVVKDAEEAVRIAREIGYPVMIKASAGGGGKGMRIAWDDEETRDGFRLSSQEAASSFGDDRLLIEKFIDNPRHIEIQVLGDKHGNALWLNERECSIQRRNQKVVEEAPSIFLDAETRRAMGEQAVALARAVKYSSAGTVEFLVDSKKNFYFLEMNTRLQVEHPVTECITGLDLVQEMIRVAKGYPLRHKQADIRINGWAVECRVYAEDPYKSFGLPSIGRLSQYQEPLHLPGVRVDSGIQPGSDISIYYDPMISKLITYGSDRTEALKRMADALDNYVIRGVTHNIALLREVIINSRFVKGDISTKFLSDVYPDGFKGHMLTKSEKNQLLAIASSLFVAFQLRAQHFQENSRMPVIKPDIANWELSVKLHDKVHTVVASNNGSVFSVEVDGSKLNVTSTWNLASPLLSVSVDGTQRTVQCLSREAGGNMSIQFLGTVYKVNILTRLAAELNKFMLEKVTEDTSSVLRSPMPGVVVAVSVKPGDAVAEGQEICVIEAMKMQNSMTAGKTGTVKSVHCQAGDTVGEGDLLVELE
For B4, the binding was “binds”.

B5: propionyl-CoA carboxylase subunit beta (PCCB) (enzyme, UniProt P05166 29-539)
chain: CSQATSVNERIENKRRTALLGGGQRRIDAQHKRGKLTARERISLLLDPGSFVESDMFVEHRCADFGMAADKNKFPGDSVVTGRGRINGRLVYVFSQDFTVFGGSLSGAHAQKICKIMDQAITVGAPVIGLNDSGGARIQEGVESLAGYADIFLRNVTASGVIPQISLIMGPCAGGAVYSPALTDFTFMVKDTSYLFITGPDVVKSVTNEDVTQEELGGAKTHTTMSGVAHRAFENDVDALCNLRDFFNYLPLSSQDPAPVRECHDPSDRLVPELDTIVPLESTKAYNMVDIIHSVVDEREFFEIMPNYAKNIIVGFARMNGRTVGIVGNQPKVASGCLDINSSVKGARFVRFCDAFNIPLITFVDVPGFLPGTAQEYGGIIRHGAKLLYAFAEATVPKVTVITRKAYGGAYDVMSSKHLCGDTNYAWPTAEIAVMGAKGAVEIIFKGHENVEAAQAEYIEKFANPFPAAVRGFVDDIIQPSSTRARICCDLDVLASKKVQRPWRKHANIPL
For B5, the binding was “binds”.
